PubChem BioAssay AID1053208 | Peter MacCallum Cancer Centre, 2014
The deposit covers about 17,000 reagents; shown is a part drawn at random. In the full data, 788 (4.7%) were called active. 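Calls rest on z-score classes alone; an extra cut-off of viability at most 70% of control was not applied to them.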 Further read-outs or replicates are left out here.

- Aim: 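Genes whose silencing cuts survival of bone tumour cells only with doxorubicin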 (primary screen)
- System: mouse osteosarcoma cells, early-passage culture from an engineered mouse model of fibroblastic bone tumour
- Knock-down reagent: siRNA pool against mouse genes, 40 nM
- Time to read-out: about 120 h (48 h before drug, then 72 h with drug)
- Conditions: doxorubicin 100 nM for 72 h, roughly 30-40% inhibitory dose
- Detection: 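Viability read as ATP luminescence after 72 h of 100 nM doxorubicin or none, duplicate wells averaged, scaled to non-targeting siRNA, then expressed as robust z-scores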
- Scale: viability z-score with doxorubicin: higher = more viable cells under doxorubicin; viability z-score without drug: higher = more viable cells with knock-down alone
- Hit rule: 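Called active if knock-down leaves viability unchanged without drug (z within -2 to 2) but lowers it with doxorubicin (z at or under -2)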

{"gene symbol":"Art1","combined z-score class":"high cell count with and without drug","viability z-score with doxorubicin":2.7,"viability z-score without drug":2.19,"activity call":"inactive"}
{"gene symbol":"Or5w8","combined z-score class":"no change with or without drug","viability z-score with doxorubicin":-0.79,"viability z-score without drug":0.17,"activity call":"inactive"}
{"gene symbol":"Col4a1","combined z-score class":"no change with or without drug","viability z-score with doxorubicin":-0.11,"viability z-score without drug":0,"activity call":"inactive"}
{"gene symbol":"Bcar3","combined z-score class":"no change with or without drug","viability z-score with doxorubicin":1.01,"viability z-score without drug":-0.17,"activity call":"inactive"}
{"gene symbol":"Pigm","combined z-score class":"no change with or without drug","viability z-score with doxorubicin":-0.67,"viability z-score without drug":1.18,"activity call":"inactive"}
{"gene symbol":"Rspo4","combined z-score class":"no change with or without drug","viability z-score with doxorubicin":0,"viability z-score without drug":0.51,"activity call":"inactive"}
{"gene symbol":"Arf4","combined z-score class":"no change with or without drug","viability z-score with doxorubicin":-0.67,"viability z-score without drug":-0.51,"activity call":"inactive"}
{"gene symbol":"Reg4","combined z-score class":"no change with or without drug","viability z-score with doxorubicin":-1.91,"viability z-score without drug":0.51,"activity call":"inactive"}
{"gene symbol":"Ccna1","combined z-score class":"no change with or without drug","viability z-score with doxorubicin":-0.22,"viability z-score without drug":0.17,"activity call":"inactive"}
{"gene symbol":"Srebf1","combined z-score class":"no change with or without drug","viability z-score with doxorubicin":0.67,"viability z-score without drug":-0.17,"activity call":"inactive"}
{"gene symbol":"Rfk","combined z-score class":"no change with or without drug","viability z-score with doxorubicin":0.45,"viability z-score without drug":1.52,"activity call":"inactive"}
{"gene symbol":"Cap1","combined z-score class":"no change with or without drug","viability z-score with doxorubicin":0.45,"viability z-score without drug":-0.17,"activity call":"inactive"}
